{"source": "PubChem BioAssay AID1259405 (NCATS, 2018)", "assay": "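Mouse-designed siRNAs used to find CHO productivity engineering targets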 (primary screen)", "cell system": "Chinese hamster CHO-K1 ovary cells with stable secreted eGFP expression", "reagents": "single siRNA against mouse genes, 0.8 pmol siRNA per well (2 µl of 400 nM stock)", "duration": "3 days", "detection": "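Percent of the per-plate non-targeting control median for intracellular GFP per well by laser scanning cytometry and for cell viability by ATP luminescence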", "reading the numbers": "GFP, % of control: higher = more GFP per well, higher productivity; viability (ATP), % of control: higher = more viable cells (more ATP)", "rule for the call": "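Called active when intracellular GFP, relative to negative control, is at or above 120%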", "note": "In all, the deposit lists about 50,000 reagents; this is a random part of them. In the full data, about 4,000 (8%) were called active. 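Mouse siRNA library applied to hamster cells; one well for each siRNA.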 The numbers tell different reagents against one gene apart."}
{"gene knocked down": "Or5p80 (olfactory receptor family 5 subfamily P member 80)", "siRNA no.": 1, "GFP, % of control": 135, "viability (ATP), % of control": 74, "call": "active"}
{"gene knocked down": "Or5p80 (olfactory receptor family 5 subfamily P member 80)", "siRNA no.": 2, "GFP, % of control": 87.9, "viability (ATP), % of control": 83.1, "call": "inactive"}
{"gene knocked down": "Or5p80 (olfactory receptor family 5 subfamily P member 80)", "siRNA no.": 3, "GFP, % of control": 78.7, "viability (ATP), % of control": 85.9, "call": "inactive"}
{"gene knocked down": "Ncapd3 (non-SMC condensin II complex, subunit D3)", "siRNA no.": 1, "GFP, % of control": 69.8, "viability (ATP), % of control": 76.6, "call": "inactive"}
{"gene knocked down": "Ncapd3 (non-SMC condensin II complex, subunit D3)", "siRNA no.": 2, "GFP, % of control": 65.3, "viability (ATP), % of control": 65.6, "call": "inactive"}
{"gene knocked down": "Ncapd3 (non-SMC condensin II complex, subunit D3)", "siRNA no.": 3, "GFP, % of control": 75.1, "viability (ATP), % of control": 78.3, "call": "inactive"}
{"gene knocked down": "Ccdc117 (coiled-coil domain containing 117)", "siRNA no.": 1, "GFP, % of control": 58.9, "viability (ATP), % of control": 50.1, "call": "inactive"}
{"gene knocked down": "Ccdc117 (coiled-coil domain containing 117)", "siRNA no.": 2, "GFP, % of control": 68.8, "viability (ATP), % of control": 96.9, "call": "inactive"}
{"gene knocked down": "Ccdc117 (coiled-coil domain containing 117)", "siRNA no.": 3, "GFP, % of control": 92.7, "viability (ATP), % of control": 126, "call": "inactive"}
{"gene knocked down": "Kctd15 (potassium channel tetramerisation domain containing 15)", "siRNA no.": 1, "GFP, % of control": 76.5, "viability (ATP), % of control": 70.2, "call": "inactive"}
{"gene knocked down": "Kctd15 (potassium channel tetramerisation domain containing 15)", "siRNA no.": 2, "GFP, % of control": 75.8, "viability (ATP), % of control": 71.9, "call": "inactive"}
{"gene knocked down": "Kctd15 (potassium channel tetramerisation domain containing 15)", "siRNA no.": 3, "GFP, % of control": 72, "viability (ATP), % of control": 64.8, "call": "inactive"}
{"gene knocked down": "Hmgcl (3-hydroxy-3-methylglutaryl-Coenzyme A lyase)", "siRNA no.": 1, "GFP, % of control": 73.1, "viability (ATP), % of control": 78.4, "call": "inactive"}
{"gene knocked down": "Hmgcl (3-hydroxy-3-methylglutaryl-Coenzyme A lyase)", "siRNA no.": 2, "GFP, % of control": 50.9, "viability (ATP), % of control": 66.6, "call": "inactive"}
{"gene knocked down": "Hmgcl (3-hydroxy-3-methylglutaryl-Coenzyme A lyase)", "siRNA no.": 3, "GFP, % of control": 180, "viability (ATP), % of control": 80.6, "call": "active"}
{"gene knocked down": "Rilpl1 (Rab interacting lysosomal protein-like 1)", "siRNA no.": 1, "GFP, % of control": 78, "viability (ATP), % of control": 73.2, "call": "inactive"}
{"gene knocked down": "Rilpl1 (Rab interacting lysosomal protein-like 1)", "siRNA no.": 2, "GFP, % of control": 107, "viability (ATP), % of control": 82.4, "call": "inactive"}
{"gene knocked down": "Rilpl1 (Rab interacting lysosomal protein-like 1)", "siRNA no.": 3, "GFP, % of control": 58, "viability (ATP), % of control": 45.6, "call": "inactive"}
{"gene knocked down": "Siah1a (siah E3 ubiquitin protein ligase 1A)", "siRNA no.": 1, "GFP, % of control": 69.9, "viability (ATP), % of control": 67.7, "call": "inactive"}
{"gene knocked down": "Siah1a (siah E3 ubiquitin protein ligase 1A)", "siRNA no.": 2, "GFP, % of control": 86.6, "viability (ATP), % of control": 91.2, "call": "inactive"}
{"gene knocked down": "Siah1a (siah E3 ubiquitin protein ligase 1A)", "siRNA no.": 3, "GFP, % of control": 29, "viability (ATP), % of control": 17.6, "call": "inactive"}
{"gene knocked down": "Mgp (matrix Gla protein)", "siRNA no.": 1, "GFP, % of control": 94.6, "viability (ATP), % of control": 93.8, "call": "inactive"}
{"gene knocked down": "Mgp (matrix Gla protein)", "siRNA no.": 2, "GFP, % of control": 74.4, "viability (ATP), % of control": 90.8, "call": "inactive"}
{"gene knocked down": "Ate1 (arginyltransferase 1)", "siRNA no.": 1, "GFP, % of control": 52.2, "viability (ATP), % of control": 61, "call": "inactive"}
{"gene knocked down": "Ate1 (arginyltransferase 1)", "siRNA no.": 2, "GFP, % of control": 89.4, "viability (ATP), % of control": 77.7, "call": "inactive"}
{"gene knocked down": "Ate1 (arginyltransferase 1)", "siRNA no.": 3, "GFP, % of control": 74.5, "viability (ATP), % of control": 93.8, "call": "inactive"}
{"gene knocked down": "Or9g4 (olfactory receptor family 9 subfamily G member 4)", "siRNA no.": 1, "GFP, % of control": 115, "viability (ATP), % of control": 48.9, "call": "inactive"}
{"gene knocked down": "Or9g4 (olfactory receptor family 9 subfamily G member 4)", "siRNA no.": 2, "GFP, % of control": 69.7, "viability (ATP), % of control": 70.8, "call": "inactive"}
{"gene knocked down": "Or9g4 (olfactory receptor family 9 subfamily G member 4)", "siRNA no.": 3, "GFP, % of control": 32.3, "viability (ATP), % of control": 53.2, "call": "inactive"}
